{"source": "patent US11766414B2", "about": "(Indi Molecular, Inc., priority 2020, dated 2023)", "experiment": "Fmoc solid-phase peptide synthesis; CTC resin; HBTU/DIPEA in DMF (HATU for some residues)", "settings": "whole synthesis, analytical HPLC and LC/MS", "data": [{"substance": "folate-hshta-Gly-Phe-Lys(DOTA)", "values": [{"measurement": "final HPLC purity", "value": 97, "unit": "%"}]}]}
